{
  "source": "the supplement of paper PMC8728848",
  "binders": {"B1": {"name": "Mincle (Bos taurus) (protein)", "chain": "MNSSTSPASQTERRCFSFQLFSWAIAGTSILLLSACFITRCVVTYSIFQLCDEKKFQPPGDSMELSCYNDGSGSVKNCCPLKWFHFQSSCYLFSPDTMSWRASLKNCSSMGAHLVVINTQEEQEFLYYTKPRKKEFYIGLTDQVTEGQWQWVDGTPFTKSLSFWDAGEPNNLVIVEDCATIRDSSNPRQNWNDVPCFFNMFRVCEMPERKI"}},
  "experiment_in_all_cases": "glycan array binding signal (z-score within array); higher = stronger binding",
  "conditions_in_all_cases": "glycan notation: IUPAC condensed, linker removed",
  "key": {"[1]": {"biological_target": "Neu5Ac(a2-6)Gal(b1-4)GlcNAc(b1-3)Gal(b1-4)GlcNAc(b1-3)GalNAc", "outline": "(§1)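 Glycan array data came from 3228 arrays in the Consortium for Functional Glycomics database, and only arrays with an available protein sequence were kept. Glycan names were put into IUPAC-condensed notation, and columns mapping to the same glycan were averaged. The binding signal is a within-array Z-score, averaged across arrays of one protein sequence run at different concentrations or buffers and across linkers. A negative Z-score can be read as non-binding.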"}, "[2]": {"biological_target": "Neu5Ac(a2-6)Gal(b1-4)GlcNAc(b1-3)Gal(b1-4)GlcNAc(b1-3)[Neu5Ac(a2-6)Gal(b1-4)GlcNAc(b1-3)Gal(b1-4)GlcNAc(b1-6)]GalNAc", "outline": "as §1"}, "[3]": {"biological_target": "Neu5Ac(a2-6)Gal(b1-4)GlcNAc(b1-3)Gal(b1-4)GlcNAc(b1-6)[Gal(b1-3)]GalNAc", "outline": "as §1"}, "[4]": {"biological_target": "Neu5Ac(a2-6)Gal(b1-4)GlcNAc(b1-3)Gal(b1-4)[Fuc(a1-3)]GlcNAc(b1-3)Gal(b1-4)[Fuc(a1-3)]GlcNAc", "outline": "as §1"}, "[5]": {"biological_target": "Neu5Ac(a2-6)Gal(b1-4)GlcNAc(b1-3)GalNAc", "outline": "as §1"}, "[6]": {"biological_target": "Neu5Ac(a2-6)Gal(b1-4)GlcNAc(b1-3)[Neu5Ac(a2-6)Gal(b1-4)GlcNAc(b1-6)]GalNAc", "outline": "as §1"}, "[7]": {"biological_target": "Neu5Ac(a2-6)Gal(b1-4)GlcNAc(b1-6)GalNAc", "outline": "as §1"}, "[8]": {"biological_target": "Neu5Ac(a2-6)Gal(b1-4)GlcNAc(b1-6)[Gal(b1-3)GlcNAc(b1-3)]Gal(b1-4)Glc", "outline": "as §1"}, "[9]": {"biological_target": "Neu5Ac(a2-6)Gal(b1-4)GlcNAc(b1-6)[Gal(b1-3)]GalNAc", "outline": "as §1"}, "[10]": {"biological_target": "Neu5Ac(a2-6)Gal(b1-4)GlcNAc6S", "outline": "as §1"}, "Neu5Ac(a2-6)GalNAc": {"biological_target": "Neu5Ac(a2-6)GalNAc", "outline": "as §1"}, "[11]": {"biological_target": "Neu5Ac(a2-6)GalNAc(b1-4)GlcNAc", "outline": "as §1"}, "[12]": {"biological_target": "Neu5Ac(a2-6)GalNAc(b1-4)GlcNAc6S", "outline": "as §1"}, "[13]": {"biological_target": "Neu5Ac(a2-6)GlcNAc(b1-4)GlcNAc", "outline": "as §1"}, "[14]": {"biological_target": "Neu5Ac(a2-6)GlcNAc(b1-4)GlcNAc(b1-4)GlcNAc", "outline": "as §1"}, "Neu5Ac(a2-8)Neu5Ac": {"biological_target": "Neu5Ac(a2-8)Neu5Ac", "outline": "as §1"}, "[15]": {"biological_target": "Neu5Ac(a2-8)Neu5Ac(a2-3)Gal(b1-3)GalNAc(b1-4)[Neu5Ac(a2-3)]Gal(b1-4)Glc", "outline": "as §1"}, "[16]": {"biological_target": "Neu5Ac(a2-8)Neu5Ac(a2-3)Gal(b1-3)GalNAc(b1-4)[Neu5Ac(a2-8)Neu5Ac(a2-3)]Gal(b1-4)Glc", "outline": "as §1"}, "[17]": {"biological_target": "Neu5Ac(a2-8)Neu5Ac(a2-3)Gal(b1-4)Glc", "outline": "as §1"}, "[18]": {"biological_target": "Neu5Ac(a2-8)Neu5Ac(a2-3)Gal(b1-4)GlcNAc", "outline": "as §1"}, "[19]": {"biological_target": "Neu5Ac(a2-8)Neu5Ac(a2-3)[Gal(b1-3)GalNAc(b1-4)]Gal(b1-4)Glc", "outline": "as §1"}, "[20]": {"biological_target": "Neu5Ac(a2-8)Neu5Ac(a2-3)[GalNAc(b1-4)]Gal(b1-4)Glc", "outline": "as §1"}, "[21]": {"biological_target": "Neu5Ac(a2-8)Neu5Ac(a2-8)Neu5Ac", "outline": "as §1"}, "[22]": {"biological_target": "Neu5Ac(a2-8)Neu5Ac(a2-8)Neu5Ac(a2-3)Gal(b1-4)Glc", "outline": "as §1"}, "[23]": {"biological_target": "Neu5Ac(a2-8)Neu5Ac(a2-8)Neu5Ac(a2-3)[Gal(b1-3)GalNAc(b1-4)]Gal(b1-4)Glc", "outline": "as §1"}, "[24]": {"biological_target": "Neu5Ac(a2-8)Neu5Ac(a2-8)Neu5Ac(a2-3)[GalNAc(b1-4)]Gal(b1-4)Glc", "outline": "as §1"}, "[25]": {"biological_target": "Neu5Ac(a2-8)Neu5Ac(a2-8)Neu5Ac(a2-8)Neu5Ac(a2-3)[GalNAc(b1-4)]Gal(b1-4)Glc", "outline": "as §1"}, "[26]": {"biological_target": "Neu5Ac(a2-8)Neu5Gc(a2-3)Gal(b1-4)GlcNAc", "outline": "as §1"}, "[27]": {"biological_target": "Neu5Ac(b2-6)Gal(b1-4)GlcNAc", "outline": "as §1"}, "Neu5Ac(b2-6)GalNAc": {"biological_target": "Neu5Ac(b2-6)GalNAc", "outline": "as §1"}, "[28]": {"biological_target": "Neu5Ac9Ac(a2-3)Gal(b1-3)GlcNAc", "outline": "as §1"}, "[29]": {"biological_target": "Neu5Ac9Ac(a2-3)Gal(b1-4)GlcNAc", "outline": "as §1"}, "[30]": {"biological_target": "Neu5Ac9Ac(a2-6)Gal(b1-4)GlcNAc", "outline": "as §1"}, "[31]": {"biological_target": "Neu5Gc(a2-3)Gal(b1-3)GlcNAc", "outline": "as §1"}, "[32]": {"biological_target": "Neu5Gc(a2-3)Gal(b1-3)[Fuc(a1-4)]GlcNAc", "outline": "as §1"}, "Neu5Gc(a2-3)Gal(b1-4)Glc": {"biological_target": "Neu5Gc(a2-3)Gal(b1-4)Glc", "outline": "as §1"}, "[33]": {"biological_target": "Neu5Gc(a2-3)Gal(b1-4)GlcNAc", "outline": "as §1"}, "[34]": {"biological_target": "Neu5Gc(a2-3)Gal(b1-4)GlcNAc(b1-3)Gal(b1-4)GlcNAc(b1-2)Man(a1-3)[Neu5Gc(a2-3)Gal(b1-4)GlcNAc(b1-3)Gal(b1-4)GlcNAc(b1-2)Man(a1-6)]Man(b1-4)GlcNAc(b1-4)GlcNAc", "outline": "as §1"}, "[35]": {"biological_target": "Neu5Gc(a2-3)Gal(b1-4)[Fuc(a1-3)]GlcNAc", "outline": "as §1"}, "[36]": {"biological_target": "Neu5Gc(a2-6)Gal(b1-4)GlcNAc", "outline": "as §1"}, "Neu5Gc(a2-6)GalNAc": {"biological_target": "Neu5Gc(a2-6)GalNAc", "outline": "as §1"}, "[37]": {"biological_target": "Neu5Gc(a2-8)Neu5Ac(a2-3)Gal(b1-4)GlcNAc", "outline": "as §1"}, "[38]": {"biological_target": "Neu5Gc(a2-8)Neu5Gc(a2-3)Gal(b1-4)GlcNAc", "outline": "as §1"}, "[39]": {"biological_target": "Neu5Gc(a2-8)Neu5Gc(a2-3)Gal(b1-4)GlcNAc(b1-3)Gal(b1-4)GlcNAc", "outline": "as §1"}, "[40]": {"biological_target": "Neu5Gc(a2-8)Neu5Gc(a2-6)Gal(b1-4)GlcNAc", "outline": "as §1"}, "[41]": {"biological_target": "Neu5Gc(b2-6)Gal(b1-4)GlcNAc", "outline": "as §1"}},
  "note": "The other results are listed elsewhere or left out.",
  "data": [
    {"binder": "B1", "values": [
      {"measurement": "glycan array binding signal (z-score)", "setting": "[1]", "result": -0.76},
      {"measurement": "glycan array binding signal (z-score)", "setting": "[2]", "result": 1.75},
      {"measurement": "glycan array binding signal (z-score)", "setting": "[3]", "result": -0.068},
      {"measurement": "glycan array binding signal (z-score)", "setting": "[4]", "result": 0.234},
      {"measurement": "glycan array binding signal (z-score)", "setting": "[5]", "result": -0.436},
      {"measurement": "glycan array binding signal (z-score)", "setting": "[6]", "result": 0.166},
      {"measurement": "glycan array binding signal (z-score)", "setting": "[7]", "result": 0.439},
      {"measurement": "glycan array binding signal (z-score)", "setting": "[8]", "result": -0.04},
      {"measurement": "glycan array binding signal (z-score)", "setting": "[9]", "result": -0.016},
      {"measurement": "glycan array binding signal (z-score)", "setting": "[10]", "result": -0.218},
      {"measurement": "glycan array binding signal (z-score)", "setting": "Neu5Ac(a2-6)GalNAc", "result": -0.507},
      {"measurement": "glycan array binding signal (z-score)", "setting": "[11]", "result": -0.744},
      {"measurement": "glycan array binding signal (z-score)", "setting": "[12]", "result": -0.538},
      {"measurement": "glycan array binding signal (z-score)", "setting": "[13]", "result": 0.082},
      {"measurement": "glycan array binding signal (z-score)", "setting": "[14]", "result": -0.07},
      {"measurement": "glycan array binding signal (z-score)", "setting": "Neu5Ac(a2-8)Neu5Ac", "result": -0.837},
      {"measurement": "glycan array binding signal (z-score)", "setting": "[15]", "result": -0.132},
      {"measurement": "glycan array binding signal (z-score)", "setting": "[16]", "result": -0.528},
      {"measurement": "glycan array binding signal (z-score)", "setting": "[17]", "result": -1.12},
      {"measurement": "glycan array binding signal (z-score)", "setting": "[18]", "result": -1.14},
      {"measurement": "glycan array binding signal (z-score)", "setting": "[19]", "result": -0.197},
      {"measurement": "glycan array binding signal (z-score)", "setting": "[20]", "result": -0.123},
      {"measurement": "glycan array binding signal (z-score)", "setting": "[21]", "result": 0.16},
      {"measurement": "glycan array binding signal (z-score)", "setting": "[22]", "result": 0.334},
      {"measurement": "glycan array binding signal (z-score)", "setting": "[23]", "result": 1.24},
      {"measurement": "glycan array binding signal (z-score)", "setting": "[24]", "result": 0.821},
      {"measurement": "glycan array binding signal (z-score)", "setting": "[25]", "result": -0.204},
      {"measurement": "glycan array binding signal (z-score)", "setting": "[26]", "result": -1.18},
      {"measurement": "glycan array binding signal (z-score)", "setting": "[27]", "result": -0.27},
      {"measurement": "glycan array binding signal (z-score)", "setting": "Neu5Ac(b2-6)GalNAc", "result": -0.564},
      {"measurement": "glycan array binding signal (z-score)", "setting": "[28]", "result": -1.51},
      {"measurement": "glycan array binding signal (z-score)", "setting": "[29]", "result": 1.02},
      {"measurement": "glycan array binding signal (z-score)", "setting": "[30]", "result": -0.265},
      {"measurement": "glycan array binding signal (z-score)", "setting": "[31]", "result": -0.503},
      {"measurement": "glycan array binding signal (z-score)", "setting": "[32]", "result": -0.349},
      {"measurement": "glycan array binding signal (z-score)", "setting": "Neu5Gc(a2-3)Gal(b1-4)Glc", "result": -0.805},
      {"measurement": "glycan array binding signal (z-score)", "setting": "[33]", "result": -0.701},
      {"measurement": "glycan array binding signal (z-score)", "setting": "[34]", "result": 0.059},
      {"measurement": "glycan array binding signal (z-score)", "setting": "[35]", "result": -0.793},
      {"measurement": "glycan array binding signal (z-score)", "setting": "[36]", "result": -0.127},
      {"measurement": "glycan array binding signal (z-score)", "setting": "Neu5Gc(a2-6)GalNAc", "result": -0.683},
      {"measurement": "glycan array binding signal (z-score)", "setting": "[37]", "result": -0.304},
      {"measurement": "glycan array binding signal (z-score)", "setting": "[38]", "result": -0.578},
      {"measurement": "glycan array binding signal (z-score)", "setting": "[39]", "result": -0.551},
      {"measurement": "glycan array binding signal (z-score)", "setting": "[40]", "result": 1.25},
      {"measurement": "glycan array binding signal (z-score)", "setting": "[41]", "result": -0.507}
    ]}
  ]
}
